Results on 42 sequences are retold here after article PMC7819943, “Rice protein-binding microarrays: a tool to detect cis-acting elements near promoter regions in rice”.

Sequences of proteins named here, by UniProt entry; tags and fusion partners are left off.
UniProt Q0JBA9, entry or part of it: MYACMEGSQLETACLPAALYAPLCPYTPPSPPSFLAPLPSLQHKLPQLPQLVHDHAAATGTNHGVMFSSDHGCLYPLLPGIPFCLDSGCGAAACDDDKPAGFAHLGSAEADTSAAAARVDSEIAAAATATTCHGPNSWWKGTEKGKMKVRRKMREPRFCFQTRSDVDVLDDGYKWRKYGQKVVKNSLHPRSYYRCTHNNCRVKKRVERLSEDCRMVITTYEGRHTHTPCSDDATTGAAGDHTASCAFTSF

Some of the results follow.

In this experiment the target is OsWRKY34 (Oryza sativa, UniProt Q0JBA9 1-250). The experiment in a line: protein-binding microarray (RPBM); PBS, 2% BSA, 51.3 ng/ul salmon testes DNA, 50 uM zinc acetate, 200 nM TF, 25 C, 1 h; high values mean tight binding. To be noted: protein: recombinant; tags: N-terminal polyhistidine and DsRed monomer fusion (pET32a); label: CyDye5-dUTP incorporated in the synthesized complementary strand; 3' TTTTT single-stranded linker to array surface; dsDNA, one strand shown. A digest of the protocol: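 Binding signal here means per-feature fluorescence intensity in arbitrary units. The values were read on an Axon 4000B scanner after a custom Agilent array, double-stranded by primer extension with Cy5-dUTP, was incubated with 200 nM protein at 25 °C for 1 h in PBS with 2% BSA, salmon testes DNA and 50 µM zinc acetate, then washed. The proteins were transcription factors with an N-terminal polyhistidine tag and DsRed, expressed in E. coli BL21-CodonPlus and purified on Ni–NTA.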
Turning to “ATTCTTTGTCAATTGTCCTTTTTTTTTTTCTGTCAAGCTACGGAGTCACCTAGTGCAG”, the binding signal is 15100 fluorescence intensity (a.u.). On to “ACACCGAAATTTGTGAAAAATACTCCCTCTGTCCCATTTTCGGAGTCACCTAGTGCAG”, for which the binding signal was 9070 fluorescence intensity (a.u.). Then “CTTTTTTAACTTCGGACCTTAATTTCTTTCTCCGAGGCCGCGGAGTCACCTAGTGCAG”, with 8220 fluorescence intensity (a.u.). With “AGCTAAGGTGATTCTTCATTTGCCTTCTTTAACGTTTCTTCGGAGTCACCTAGTGCAG”, the binding signal was 8660 fluorescence intensity (a.u.).

Take “GCAAGCTTCATCCATGTCTCACCTTTTCTAAAACCCTAATCGGAGTCACCTAGTGCAG”: the binding signal is 9760 fluorescence intensity (a.u.). For the sequence “TGCAGATCCTCTTGTTGATGCTGTGCACAATTTCTCAAATCGGAGTCACCTAGTGCAG”, the binding signal is 8290 fluorescence intensity (a.u.). Next, “CTGATGCGTTGTGTAGGGGTTATTATAGGCTTCATTGTTCCGGAGTCACCTAGTGCAG”: 13500 fluorescence intensity (a.u.). Next, “ATACTACTACTCCATATAGCTTATTGACTTTGACATATAACGGAGTCACCTAGTGCAG”: 8800 fluorescence intensity (a.u.); “ATGAGGGAAGTGTGGCGCTGTAGCTTCGGGTGGTGGGGCTCGGAGTCACCTAGTGCAG”: 10400 fluorescence intensity (a.u.). Regarding “TGGCGATCCTTATGAGTTGTGGTGGTTTGACTTACCTGTCCGGAGTCACCTAGTGCAG”, the binding signal was 10200 fluorescence intensity (a.u.). Next, “AATCGAGCTTACCGTTTGACCCTCTTTTCGCTCACCGTTACGGAGTCACCTAGTGCAG”: 10400 fluorescence intensity (a.u.). Then “CTGGACGCGGTCCTGCACGACACATGCATCATCTCCTCAACGGAGTCACCTAGTGCAG”, with 8570 fluorescence intensity (a.u.). On to “CTTTATTTACGTTTAGAACTGTTTATTACTTGTCGTTTTGCGGAGTCACCTAGTGCAG”, for which the binding signal was 9950 fluorescence intensity (a.u.).

Turning to “TATTATGGTATTATCAAATCTTGCCCGCGTATTAAAATGCCGGAGTCACCTAGTGCAG”, the binding signal was 9630 fluorescence intensity (a.u.).

Consider “TTTCTTGATTAGGGTTTGAATTCATATTACTAACTTTCCTCGGAGTCACCTAGTGCAG”, for which the binding signal was 8450 fluorescence intensity (a.u.). In the case of “GTTGATTGTCCTGCTTCTTTTCTGTATTGAGATTCTTGTACGGAGTCACCTAGTGCAG”, the binding signal was 8390 fluorescence intensity (a.u.). In the case of “CCATGGCGGGCGAGTTAGTTGGTCAGAGTTGTAGTTAACCCGGAGTCACCTAGTGCAG”, the binding signal is 8310 fluorescence intensity (a.u.). Next, “GCTTAAGTGTGATCCTATCATTCCTCACCTGCATTCATTCCGGAGTCACCTAGTGCAG”: 9390 fluorescence intensity (a.u.); “TCTCGTCTCCTCCGCTCCTTGTGCCTGCGCCCATCGACTCCGGAGTCACCTAGTGCAG”: 8620 fluorescence intensity (a.u.); “TGTCGTGGTTGGGGAAAAGGGATAAATGAAGGGAGGAGGACGGAGTCACCTAGTGCAG”: 8210 fluorescence intensity (a.u.).

With “TCTCACTATTTCATTTTTTTTATTAATAATGGATGTTAAACGGAGTCACCTAGTGCAG”, the binding signal was 8460 fluorescence intensity (a.u.).

For “GAGAGCTGCATTTGTCTTTTCTTTTTTCAGAAGCTAGTAGCGGAGTCACCTAGTGCAG”, the binding signal was 8080 fluorescence intensity (a.u.). Next, “TCTTCTTCTTGTTGTTCTTGTTCTTTCTTCTTCCCCTTTTCGGAGTCACCTAGTGCAG”: 18800 fluorescence intensity (a.u.).

With “TTCTTTCAACCATCAACTTCAGTTACTGTATGTATATCCCCGGAGTCACCTAGTGCAG”, the binding signal was 9410 fluorescence intensity (a.u.). Then “TACTTGTCTCTTTGAGCTACACTCTTTCACATCAACTTTTCGGAGTCACCTAGTGCAG”, with 9050 fluorescence intensity (a.u.); and “AAAAATCATAACGAGGTACATAATGGTCTGGGCTATCCTGCGGAGTCACCTAGTGCAG”, with 9310 fluorescence intensity (a.u.); and “CTTTTCCTTTTTATCGTTTTTCTGTTAGGAGGTTTGATCACGGAGTCACCTAGTGCAG”, with 9240 fluorescence intensity (a.u.).

Regarding “TGGTTGTGGGACTGTGGGGCCGGGTCAAGTCAAGTCAATGCGGAGTCACCTAGTGCAG”, the binding signal is 11600 fluorescence intensity (a.u.).

As to “TCAAGCCCATTCCCATTCACCATCGCATCACACAGGCACACGGAGTCACCTAGTGCAG”, the binding signal is 8180 fluorescence intensity (a.u.). With “CAGGGTTATATAATGGGTCTTATTAATAGTCTACGTTTAACGGAGTCACCTAGTGCAG”, the binding signal was 8590 fluorescence intensity (a.u.). For the sequence “TTCAGTTTGGTGTTAAGCTCTCTTTGTCTCGGCCTCTGAACGGAGTCACCTAGTGCAG”, the binding signal was 8270 fluorescence intensity (a.u.). Next, “CGAGGTCGTTTGGTTTTCTTTTCCTTTTTGGTTGTGTGTTCGGAGTCACCTAGTGCAG”: 9070 fluorescence intensity (a.u.); “GCAATCTGTTCAATTGGTTTTTTTTGTTTACATTTAATACCGGAGTCACCTAGTGCAG”: 8300 fluorescence intensity (a.u.). Then “TTTTTGGCTGGTCAAATTTGGCTAGTGTGGGGAGGGTTTTCGGAGTCACCTAGTGCAG”, with 23600 fluorescence intensity (a.u.).

For the sequence “TGTTATTGTTTTTCCTTGAGCTCGTGACAAGTGTCTTTGTCGGAGTCACCTAGTGCAG”, the binding signal was 10200 fluorescence intensity (a.u.). Then “ATATACTCCTACTACATACAACTTCTTTCTTTTCCATCGTCGGAGTCACCTAGTGCAG”, with 9900 fluorescence intensity (a.u.). Then “CGCCGCCGCCGCGTTGACCTCCGCCACGGTGGCCGCATCCCGGAGTCACCTAGTGCAG”, with 9510 fluorescence intensity (a.u.); and “ATCATCGTTCACCCGCATTTCATCTACTTCAATCTACATTCGGAGTCACCTAGTGCAG”, with 9810 fluorescence intensity (a.u.); and “AATGGCGCGCGAGTCTTATACCCTATGATCCCTCGTCACCCGGAGTCACCTAGTGCAG”, with 8170 fluorescence intensity (a.u.). As to “TCAAAACGGCCCACTCGCCGCCCGCCACGTGTCCGACCCGCGGAGTCACCTAGTGCAG”, the binding signal was 8920 fluorescence intensity (a.u.). Next, “CAGTTTTTGAGGTAGAAGGGTATCATTGTAATTTTGCATCCGGAGTCACCTAGTGCAG”: 8850 fluorescence intensity (a.u.); “CATGGTGCCTCTTTTGAATTCCCTCCATATTGAACATCTACGGAGTCACCTAGTGCAG”: 8830 fluorescence intensity (a.u.).
